Experimental data published in article PMC6814715.
Results are given in words; binding and its absence hold for the method and conditions named. In cells and extracts the contact can be indirect. Some entries that bind do so weakly or less than the wild type. For part of these data: Tags and fused reporters may be left off the sequences shown.

Sequences of proteins named here, by UniProt entry; tags and fusion partners are left off.
UniProt O95271: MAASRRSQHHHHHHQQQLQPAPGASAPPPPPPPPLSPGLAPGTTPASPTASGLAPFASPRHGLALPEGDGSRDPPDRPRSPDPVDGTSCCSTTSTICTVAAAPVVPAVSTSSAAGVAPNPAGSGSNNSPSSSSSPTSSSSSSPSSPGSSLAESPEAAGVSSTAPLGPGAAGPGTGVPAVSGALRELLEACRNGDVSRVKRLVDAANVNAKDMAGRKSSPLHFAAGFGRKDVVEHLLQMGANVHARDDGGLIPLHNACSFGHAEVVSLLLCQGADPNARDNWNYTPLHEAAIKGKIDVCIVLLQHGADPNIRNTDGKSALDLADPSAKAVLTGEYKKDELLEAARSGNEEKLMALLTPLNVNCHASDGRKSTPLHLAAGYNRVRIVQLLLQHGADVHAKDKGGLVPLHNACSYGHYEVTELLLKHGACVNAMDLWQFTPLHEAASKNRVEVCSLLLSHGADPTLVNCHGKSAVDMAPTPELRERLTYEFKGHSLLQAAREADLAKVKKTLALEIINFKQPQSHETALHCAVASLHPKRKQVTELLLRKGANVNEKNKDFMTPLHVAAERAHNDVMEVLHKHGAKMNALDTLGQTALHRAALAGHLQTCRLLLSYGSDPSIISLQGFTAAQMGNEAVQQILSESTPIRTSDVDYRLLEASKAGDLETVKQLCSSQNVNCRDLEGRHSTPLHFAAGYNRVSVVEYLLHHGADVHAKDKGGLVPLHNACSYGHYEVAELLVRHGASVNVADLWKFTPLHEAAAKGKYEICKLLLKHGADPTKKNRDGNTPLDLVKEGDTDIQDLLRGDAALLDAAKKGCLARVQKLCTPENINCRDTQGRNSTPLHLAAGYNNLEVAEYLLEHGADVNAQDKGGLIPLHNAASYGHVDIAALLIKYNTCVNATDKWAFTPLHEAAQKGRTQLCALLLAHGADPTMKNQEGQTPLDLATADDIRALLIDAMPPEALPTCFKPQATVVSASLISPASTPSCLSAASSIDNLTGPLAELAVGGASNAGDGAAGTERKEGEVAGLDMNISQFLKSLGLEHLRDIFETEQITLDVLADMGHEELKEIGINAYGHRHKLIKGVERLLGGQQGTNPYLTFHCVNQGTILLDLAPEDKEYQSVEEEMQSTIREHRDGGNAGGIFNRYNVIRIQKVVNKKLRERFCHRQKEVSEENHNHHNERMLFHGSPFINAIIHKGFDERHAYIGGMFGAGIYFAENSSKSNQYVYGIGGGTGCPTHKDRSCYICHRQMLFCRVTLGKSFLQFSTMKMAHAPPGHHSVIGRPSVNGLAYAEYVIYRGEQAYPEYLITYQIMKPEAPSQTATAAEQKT
UniProt P48436: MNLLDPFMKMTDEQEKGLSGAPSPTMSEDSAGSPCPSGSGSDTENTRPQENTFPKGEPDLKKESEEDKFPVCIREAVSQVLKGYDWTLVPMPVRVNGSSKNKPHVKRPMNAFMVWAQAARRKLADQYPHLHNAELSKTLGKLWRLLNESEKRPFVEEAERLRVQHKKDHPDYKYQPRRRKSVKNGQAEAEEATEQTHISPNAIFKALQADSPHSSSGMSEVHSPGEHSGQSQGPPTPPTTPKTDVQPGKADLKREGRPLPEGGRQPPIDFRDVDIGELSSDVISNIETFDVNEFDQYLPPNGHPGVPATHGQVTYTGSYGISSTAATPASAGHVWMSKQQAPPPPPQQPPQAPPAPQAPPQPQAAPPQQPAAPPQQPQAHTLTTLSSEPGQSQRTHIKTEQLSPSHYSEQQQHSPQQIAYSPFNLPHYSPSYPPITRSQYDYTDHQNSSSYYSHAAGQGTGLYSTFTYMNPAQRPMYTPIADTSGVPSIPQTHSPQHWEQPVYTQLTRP

What was measured:
Assay in all cases: co-IP; tagged proteins expressed in HEK293T cells ('pull-down assays'); lysates in EBC200 buffer (50 mM Tris-HCl pH 7.4, 150 mM NaCl, 0.5% NP-40, 1 mM EDTA), pull-down with the indicated antibodies and protein A/G-Sepharose beads; which partner was precipitated is not told
[1] = target: T1, GFP-tagged human TNKS2 (human) (UniProt Q9H2K2)
T1 sequence: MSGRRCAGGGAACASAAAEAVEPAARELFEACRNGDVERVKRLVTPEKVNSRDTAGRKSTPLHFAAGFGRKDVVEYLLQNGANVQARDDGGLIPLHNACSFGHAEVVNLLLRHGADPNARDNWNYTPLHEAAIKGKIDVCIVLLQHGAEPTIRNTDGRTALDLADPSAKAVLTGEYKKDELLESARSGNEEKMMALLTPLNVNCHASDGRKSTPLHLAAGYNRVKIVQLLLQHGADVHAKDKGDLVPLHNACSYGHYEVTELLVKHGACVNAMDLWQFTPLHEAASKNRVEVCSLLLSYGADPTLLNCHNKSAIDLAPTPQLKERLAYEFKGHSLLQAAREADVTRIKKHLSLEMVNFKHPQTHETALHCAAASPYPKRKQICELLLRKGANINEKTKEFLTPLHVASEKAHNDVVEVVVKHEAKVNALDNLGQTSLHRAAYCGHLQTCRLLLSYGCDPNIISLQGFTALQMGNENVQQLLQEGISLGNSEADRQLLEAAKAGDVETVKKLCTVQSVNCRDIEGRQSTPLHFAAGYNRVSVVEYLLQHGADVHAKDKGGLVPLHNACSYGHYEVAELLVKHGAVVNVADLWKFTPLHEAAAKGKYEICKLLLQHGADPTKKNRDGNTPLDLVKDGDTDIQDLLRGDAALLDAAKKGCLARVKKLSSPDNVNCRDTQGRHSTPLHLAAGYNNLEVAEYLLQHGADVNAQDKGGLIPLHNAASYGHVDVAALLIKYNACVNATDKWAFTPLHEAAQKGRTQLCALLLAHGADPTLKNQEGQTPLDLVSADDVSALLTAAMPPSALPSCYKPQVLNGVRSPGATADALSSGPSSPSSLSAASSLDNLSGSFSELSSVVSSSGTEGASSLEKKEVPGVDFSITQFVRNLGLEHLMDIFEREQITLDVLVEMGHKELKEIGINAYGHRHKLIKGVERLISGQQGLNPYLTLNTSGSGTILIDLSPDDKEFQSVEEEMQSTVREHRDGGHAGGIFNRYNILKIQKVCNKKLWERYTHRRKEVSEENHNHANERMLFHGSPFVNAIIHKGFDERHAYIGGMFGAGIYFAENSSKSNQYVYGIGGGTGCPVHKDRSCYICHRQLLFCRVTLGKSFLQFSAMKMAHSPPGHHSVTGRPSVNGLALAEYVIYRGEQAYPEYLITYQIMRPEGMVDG

[2] = target: GFP-tagged human TNKS (human) (UniProt O95271)
[3] = target: T2, Myc-tagged human TNKS2 (human) (UniProt Q9H2K2)
T2 sequence: T1 sequence

Measured: binding

HA-tagged wild-type human SOX9 (from UniProt P48436 1-509)
binds: all assays above
